Data as given in PubChem BioAssay AID743454 (Peter MacCallum Cancer Centre, 2014)
The deposit covers about 18,000 reagents; this is an unselected part. In the full data, 450 (2.5%) were called active. 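Single biological run; no consistent viability z cut-off exists, so the class columns, not z-scores, define the calls.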 A number with no mark means an inactive call. Reagent sequences are not shown.

- Screen: 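Knock-downs lowering viability or raising caspase 3/7 activity in vorinostat-treated resistant cells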 (primary screen)
- Cell system: human HCT116-VR colon cancer cells, selected for vorinostat resistance
- Knock-down reagent: siRNA pool against human genes, 40 nM siRNA pool
- Time to read-out: vorinostat for 24 h, read-out about 72 h after transfection
- Treatment: vorinostat at 2.5 µM final
- Detection: 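Two measures, CellTiter-Fluor viability and luminescent caspase 3/7 activity, each as fold change against same-plate mock wells, mean of duplicates, then screen-wide robust z-score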
- Direction: viability robust z-score: higher = more viable cells than screen typical; caspase robust z-score: higher = more caspase 3/7 activity than screen typical
- Rule for the call: 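Hits are knock-downs in viability class RV1/RV2 or caspase class CA1/CA2, excluding ones that killed cells in the no-drug cell-count arm; hits then retested with single siRNAs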

gene	PubChem SID	viability hit class	caspase hit class	viability robust z-score	caspase robust z-score
PIGC	SID152150235	no change	no change	-0.22	0.81
SPAM1	SID134321236	no change	no change	0.88	-0.92
ABI3	SID134317409	no change	no change	0.36	-0.16
RELT	SID134313025	no change	no change	0.42	-0.31
ADAMTS14	SID152150189	no change	no change	-1.64	2.02
EEPD1	SID152154588	no change	no change	1.03	-0.86
BMP5	SID152153763	no change	no change	1.16	0.24
FCF1	SID152148300	no change	no change	-2.21	-1.27
DSG1	SID152151950	no change	no change	0.58	-0.03
TRPT1	SID135622809	no change	no change	-1.28	2.06
DUSP3	SID134312830	no change	no change	1.58	2.46
RNASE1	SID152153661	no change	no change	-0.21	0.06
KCNH4	SID134311652	no change	no change	0.7	-0.32
PCNT	SID152150080	no change	no change	-2.42	1.03
OR2M4	SID135624681	no change	no change	0.34	-0.16
NAMPT	SID152148465	no change	no change	-0.14	1.99
MARF1	SID152148614	no change	no change	1.21	-0.5
ATP8A2	SID152151047	no change	no change	-1.15	-0.84
TSLIG2	SID134318465	no change	no change	-1.01	2.72
LCE2B	SID135622330	no change	no change	0.66	1.24
TPM4	SID134323520	no change	no change	0.54	0.52
LRRC75A	SID134329543	no change	no change	-0.22	-0.15
CHD2	SID135621682	no change	no change	1.13	2.48

Look-ups from the entries so far:
KCNH4 [SID134311652], caspase hit class = no change
LCE2B [SID135622330], caspase robust z-score = 1.24
